{"source": "patent US8552053B2", "about": "“7-substituted indirubin-3′oximes and their applications” (Centre National de la Recherche Scientifique, priority 2005, dated 2013)", "tested_on": "SH-SY5Y cells", "experiment": "SH-SY5Y cell survival, MTS reduction assay", "assay_type": "cell-based, human", "conditions": "25 μM (FIG. 7)", "protocol": "SH-SY5Y, IMR-5 and IMR-32 human neuroblastoma cell lines were grown in DMEM medium from (Biowhittaker) plus 2 mM L-glutamine from Eurobio (Courtaboeuf, France) or DMEM already supplemented with 2 mM L-glutamine (Invitrogen, Barcelona, Spain), plus antibiotics and a 10% volume of FCS (Invitrogen, Cergy Pontoise, France or Barcelona, Spain). SH-SY5Y cell lines permanently transfected with pcDNA3/Bcl-2, pcDNA3/Bcl-XL and empty pcDNA3 vectors were grown like their untransfected counterparts. However, Geneticin (G-418) selection was maintained in the growing cultures before the terminal experiments (Ribas and Boix, 2004). In order to induce differentiation, SH-SY5Y cells were cultured on collagen coated plates and treated with 10 μM RA for five days.\nCell death characterization based on nuclear morphology was assessed by double staining with 0.05 μg/ml bisBenzimide and 25 μg/ml propidium iodide. Cell viability was determined by means of the MTS method. Both procedures have been previously described in detail (Ribas and Boix, 2004). For evaluation of DNA laddering, cell DNA was extracted and electrophoresed in 1.5% agarose gels to evidence the internucleosomal fragmentation typical of apoptosis.\nThe effects of each indirubin was tested, at a 25 μM final concentration, on the survival of the neuroblastoma SH-SY5Y cell line after 24 h or 48 h exposure.", "note": "Some entries share one result that the patent states for a list of compounds.", "data": [{"smiles": "O=C1Nc2ccc(Br)cc2C1=C1Nc2ccccc2C1=NO", "note": "[5BIO, 5-bromoindirubin-3′-oxime]", "values": [{"measurement": "time required to induce 70% cell death", "value": "36 to 48", "unit": "h"}]}]}
